This is an account of results in article doi:10.1101/170100.

Amino acid sequences for entries named in this document (tags omitted).
UniProt Q9QZ81: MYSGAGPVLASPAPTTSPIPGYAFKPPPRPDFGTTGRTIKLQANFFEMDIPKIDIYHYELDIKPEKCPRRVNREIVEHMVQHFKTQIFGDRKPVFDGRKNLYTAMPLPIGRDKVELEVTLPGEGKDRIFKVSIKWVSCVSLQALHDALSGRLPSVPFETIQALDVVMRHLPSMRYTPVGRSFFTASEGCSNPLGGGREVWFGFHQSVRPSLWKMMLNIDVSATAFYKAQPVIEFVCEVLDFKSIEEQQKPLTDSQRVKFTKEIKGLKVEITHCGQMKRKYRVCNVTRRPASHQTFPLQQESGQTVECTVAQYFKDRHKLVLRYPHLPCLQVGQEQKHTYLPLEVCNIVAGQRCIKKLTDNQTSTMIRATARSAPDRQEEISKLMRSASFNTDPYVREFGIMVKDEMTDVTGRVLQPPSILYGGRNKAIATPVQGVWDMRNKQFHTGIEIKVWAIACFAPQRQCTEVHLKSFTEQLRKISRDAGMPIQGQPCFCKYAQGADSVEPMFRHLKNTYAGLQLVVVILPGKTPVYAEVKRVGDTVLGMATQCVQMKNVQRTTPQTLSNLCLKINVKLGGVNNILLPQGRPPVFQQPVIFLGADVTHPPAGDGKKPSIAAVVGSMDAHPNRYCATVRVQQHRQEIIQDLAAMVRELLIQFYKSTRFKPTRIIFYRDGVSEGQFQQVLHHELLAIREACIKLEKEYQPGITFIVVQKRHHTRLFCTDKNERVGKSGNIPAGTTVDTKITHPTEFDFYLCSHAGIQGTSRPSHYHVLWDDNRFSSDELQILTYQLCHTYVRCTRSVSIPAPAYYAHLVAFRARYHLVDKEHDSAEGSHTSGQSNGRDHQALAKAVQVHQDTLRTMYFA
UniProt Q7TP98: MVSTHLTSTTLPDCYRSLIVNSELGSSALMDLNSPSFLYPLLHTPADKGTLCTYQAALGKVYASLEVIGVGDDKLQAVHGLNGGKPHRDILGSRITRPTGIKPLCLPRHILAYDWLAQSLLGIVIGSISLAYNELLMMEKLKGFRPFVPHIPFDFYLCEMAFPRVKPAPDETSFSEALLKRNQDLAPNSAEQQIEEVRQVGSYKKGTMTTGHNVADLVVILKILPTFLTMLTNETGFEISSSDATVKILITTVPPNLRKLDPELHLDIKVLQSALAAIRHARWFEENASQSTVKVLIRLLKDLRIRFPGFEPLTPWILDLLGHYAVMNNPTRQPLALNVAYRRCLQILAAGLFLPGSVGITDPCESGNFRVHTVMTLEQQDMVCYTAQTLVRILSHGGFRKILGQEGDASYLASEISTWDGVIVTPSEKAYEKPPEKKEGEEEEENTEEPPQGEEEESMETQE
UniProt O09032: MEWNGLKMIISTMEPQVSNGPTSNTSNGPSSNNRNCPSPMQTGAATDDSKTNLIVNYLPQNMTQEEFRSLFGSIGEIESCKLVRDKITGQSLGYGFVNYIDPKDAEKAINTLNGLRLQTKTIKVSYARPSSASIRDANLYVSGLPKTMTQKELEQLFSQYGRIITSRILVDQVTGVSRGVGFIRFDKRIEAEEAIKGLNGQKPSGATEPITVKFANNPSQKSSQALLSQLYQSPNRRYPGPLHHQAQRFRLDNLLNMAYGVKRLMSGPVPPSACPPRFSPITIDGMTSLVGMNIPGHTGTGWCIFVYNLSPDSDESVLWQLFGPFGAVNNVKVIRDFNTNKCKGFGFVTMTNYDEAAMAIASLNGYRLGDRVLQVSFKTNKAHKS
UniProt Q8CH84: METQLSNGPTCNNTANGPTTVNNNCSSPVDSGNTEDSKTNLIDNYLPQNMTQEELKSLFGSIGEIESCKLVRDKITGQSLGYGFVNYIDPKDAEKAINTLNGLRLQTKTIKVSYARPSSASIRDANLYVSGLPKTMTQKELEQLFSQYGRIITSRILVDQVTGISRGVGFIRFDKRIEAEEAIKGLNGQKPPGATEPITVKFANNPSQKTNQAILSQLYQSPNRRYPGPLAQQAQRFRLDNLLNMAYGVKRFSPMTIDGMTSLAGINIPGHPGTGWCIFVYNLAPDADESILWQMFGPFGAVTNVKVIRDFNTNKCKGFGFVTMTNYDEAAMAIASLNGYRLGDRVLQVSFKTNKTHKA

No constants are given. Whether binding was seen depends on the method and setting. Binding seen in cells or lysates may run through a third protein. Here binding means that the protein was enriched with, or labelled near, the bait; the list need not be complete.

For this assay, the target named is T1, Upf1 (rat (endogenous in sympathetic neurons of Sprague Dawley rats and in PC12 cells)).
T1 sequence: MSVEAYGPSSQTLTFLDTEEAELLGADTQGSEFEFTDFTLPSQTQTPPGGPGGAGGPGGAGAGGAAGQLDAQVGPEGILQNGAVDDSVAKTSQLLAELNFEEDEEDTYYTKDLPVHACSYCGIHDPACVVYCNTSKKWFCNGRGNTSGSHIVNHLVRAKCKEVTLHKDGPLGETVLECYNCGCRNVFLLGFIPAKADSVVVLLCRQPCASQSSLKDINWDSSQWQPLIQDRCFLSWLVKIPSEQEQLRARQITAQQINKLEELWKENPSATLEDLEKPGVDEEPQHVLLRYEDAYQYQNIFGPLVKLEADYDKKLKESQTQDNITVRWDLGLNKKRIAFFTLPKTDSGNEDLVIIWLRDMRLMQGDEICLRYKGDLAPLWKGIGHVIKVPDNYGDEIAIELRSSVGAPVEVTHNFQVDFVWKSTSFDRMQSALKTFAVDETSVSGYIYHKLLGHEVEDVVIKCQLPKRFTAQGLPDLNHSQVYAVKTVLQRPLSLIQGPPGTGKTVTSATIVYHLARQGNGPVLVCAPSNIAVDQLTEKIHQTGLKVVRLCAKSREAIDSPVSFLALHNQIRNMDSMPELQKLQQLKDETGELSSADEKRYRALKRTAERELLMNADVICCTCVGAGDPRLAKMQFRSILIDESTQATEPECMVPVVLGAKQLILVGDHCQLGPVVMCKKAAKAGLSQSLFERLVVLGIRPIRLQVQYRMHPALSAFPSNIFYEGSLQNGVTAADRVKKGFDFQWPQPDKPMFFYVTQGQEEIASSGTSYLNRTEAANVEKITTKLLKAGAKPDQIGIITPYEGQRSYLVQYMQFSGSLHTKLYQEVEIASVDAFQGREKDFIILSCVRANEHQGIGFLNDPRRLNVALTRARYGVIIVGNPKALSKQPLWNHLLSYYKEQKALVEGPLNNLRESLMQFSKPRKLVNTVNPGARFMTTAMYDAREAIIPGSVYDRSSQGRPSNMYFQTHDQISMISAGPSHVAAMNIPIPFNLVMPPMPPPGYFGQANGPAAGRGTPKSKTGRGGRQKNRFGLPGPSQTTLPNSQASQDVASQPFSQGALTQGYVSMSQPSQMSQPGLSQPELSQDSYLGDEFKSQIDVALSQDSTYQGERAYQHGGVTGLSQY
Nature of the assay: affinity purification with mass spectrometry.
As for argonaute-2 (from UniProt Q9QZ81 1-860), the binding entry is “binds”.

Consider “interleukin enhancer-binding factor 2 (from UniProt Q7TP98 1-463)”, for which the binding result was “binds”. Regarding “ELAV-like protein 4 (from UniProt O09032 1-385)”, the binding entry was “binds”. Take “ELAV-like protein 2 (from UniProt Q8CH84 1-359)”: the binding result was “binds”.
